These are yes or no findings as the source states them, for the method shown. In cells and extracts the contact can be indirect. Some entries that bind do so weakly or less than the wild type.
Target: prolyl-isomerase Pin1 (endogenous, HeLa cells) (human (endogenous in HeLa)) (UniProt Q13526)
Assay: co-IP; Pin1 immunoprecipitated with anti-Pin1 polyclonal antibody from HeLa lysates (IP lysis buffer: 50 mM HEPES pH 7.5, 150 mM NaCl, 1% Triton, 10% glycerol); GRK2 detected by immunoblot and normalised to immunoprecipitated Pin1; cells asynchronous or G2-arrested with 5 uM etoposide for 18 h

The chains behind the UniProt entries cited, without tags or fusion partners.
UniProt Q13526: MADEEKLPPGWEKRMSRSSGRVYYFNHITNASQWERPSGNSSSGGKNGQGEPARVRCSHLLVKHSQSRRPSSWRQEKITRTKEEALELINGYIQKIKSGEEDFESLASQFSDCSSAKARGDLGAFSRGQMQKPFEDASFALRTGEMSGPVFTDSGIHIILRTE
UniProt P25098: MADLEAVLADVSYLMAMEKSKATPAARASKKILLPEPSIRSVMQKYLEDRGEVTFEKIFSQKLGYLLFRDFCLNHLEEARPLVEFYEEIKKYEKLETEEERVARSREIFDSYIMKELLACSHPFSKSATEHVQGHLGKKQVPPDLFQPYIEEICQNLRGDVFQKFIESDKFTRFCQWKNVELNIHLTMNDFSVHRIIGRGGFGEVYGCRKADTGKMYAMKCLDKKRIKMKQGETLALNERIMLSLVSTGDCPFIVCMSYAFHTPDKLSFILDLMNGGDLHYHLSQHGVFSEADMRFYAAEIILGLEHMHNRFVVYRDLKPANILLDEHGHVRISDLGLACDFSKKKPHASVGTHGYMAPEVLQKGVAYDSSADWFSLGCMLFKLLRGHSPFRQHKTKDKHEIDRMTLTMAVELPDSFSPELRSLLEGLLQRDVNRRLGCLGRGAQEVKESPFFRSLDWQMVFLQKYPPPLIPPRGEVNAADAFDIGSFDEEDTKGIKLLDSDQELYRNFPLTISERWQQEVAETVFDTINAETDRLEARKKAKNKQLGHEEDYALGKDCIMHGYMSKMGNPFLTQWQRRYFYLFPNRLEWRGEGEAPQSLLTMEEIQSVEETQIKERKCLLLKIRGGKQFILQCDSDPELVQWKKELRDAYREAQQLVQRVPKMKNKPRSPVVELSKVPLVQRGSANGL

| binding | Substance |
| --- | --- |
| binds | wild-type GRK2 stably overexpressed in HeLa cells (HeLa-WT5) (from UniProt P25098 1-689) |
| binds | G protein-coupled receptor kinase GRK2 (endogenous, parental HeLa cells) (from UniProt P25098 1-689) |
